For some assays here: Strings that start with PEPTIDE1 are HELM notation: dots part the residues, brackets hold end groups and non-standard residues.
Key:
[1] = general procedure: Fmoc solid-phase peptide synthesis; Fmoc-Cys(Trt) Tentagel; HBTU/HOBt/DIPEA; settings: whole synthesis, scale 0.415 mmol
[2] = general procedure: Fmoc solid-phase peptide synthesis; pre-loaded Fmoc-Cys(Trt) on Tentagel resin (RAPP Polymere); HBTU/HOBt/DIPEA; settings: conjugation step, determined by absorbance at 750 nm

CysAspArgAsp-Linker-AAZ
isolated mass [1]: 135 mg | isolated yield [1]: 33%

CysAspArgAsp-Linker-COOH
isolated mass [1]: 116 mg | isolated yield [1]: 43%

PEPTIDE1{[AAZtrzVal].D.D.K.[PEG2N-IRDye750]}|PEPTIDE2{[AAZtrzVal].D.D}$PEPTIDE1,PEPTIDE2,4:R3-3:R2$$$V2.0
conjugation yield [2]: 17%
